Experimental data published in article PMC7979705.
No constants are given. Whether binding was seen depends on the method and setting. In cells and extracts the contact can be indirect. Sequences can lack the tags named with a protein.

Molecular target: Flag-SIRT3
Assay: co-IP; HEK293T co-transfected with tagged ELF5 and tagged sirtuins; precipitation with anti-Flag affinity gel; immunoblot

- binding: no binding
B1: HA-tagged ELF5 (protein, UniProt Q9UKW6-2 1-255)
chain: MLDSVTHSTFLPNASFCDPLMSWTDLFSNEEYYPAFEHQTACDSYWTSVHPEYWTKRHVWEWLQFCCDQYKLDTNCISFCNFNISGLQLCSMTQEEFVEAAGLCGEYLYFILQNIRTQGYSFFNDAEESKATIKDYADSNCLKTSGIKSQDCHSHSRTSLQSSHLWEFVRDLLLSPEENCGILEWEDREQGIFRVVKSEALAKMWGQRKKNDRMTYEKLSRALRYYYKTGILERVDRRLVYKFGKNAHGWQEDKL
